Experimental data: the supplement of paper PMC4604168 (melanoma cell lines)
This is one part of the list. Repeats are few or missing, and single values can be far off.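 Cells were imaged in 1,536-well plates, and nuclei stained with an antibody against cleaved PARP were counted against all DNA-stained nuclei to give the apoptosis fraction. Screening doses were chosen to leave most cells alive, and resting and induced cleaved-PARP levels differ strongly between cell lines.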

Experiments:
Assay in all cases: cleaved PARP positive nuclei fraction relative to DMSO control; melanoma cells; higher = more apoptosis
Settings in all cases: library dose: low library concentration; 72 h
501Mel = test system: 501Mel
A101D = test system: A101D
A2058 = test system: A2058
A375 = test system: A375
C32 = test system: C32
CBRC008 = test system: CBRC008 (line from a melanoma biopsy)
CBRC013 = test system: CBRC013 (line from a melanoma biopsy)
CBRC014 = test system: CBRC014 (line from a melanoma biopsy)
CBRC016 = test system: CBRC016 (line from a melanoma biopsy)
CBRC017 = test system: CBRC017 (line from a melanoma biopsy)
COLO792 = test system: COLO792
COLO800 = test system: COLO800
COLO829 = test system: COLO829
G361 = test system: G361
IPC-298 = test system: IPC-298
IST-MEL1 = test system: IST-MEL1
LB2518-MEL = test system: LB2518-MEL
LOXIMVI = test system: LOXIMVI
MEL-HO = test system: MEL-HO

Structure (SMILES)	cleaved PARP positive nuclei fraction (501Mel) [%]	cleaved PARP positive nuclei fraction (A101D) [%]	cleaved PARP positive nuclei fraction (A2058) [%]	cleaved PARP positive nuclei fraction (A375) [%]	cleaved PARP positive nuclei fraction (C32) [%]	cleaved PARP positive nuclei fraction (CBRC008) [%]	cleaved PARP positive nuclei fraction (CBRC013) [%]	cleaved PARP positive nuclei fraction (CBRC014) [%]	cleaved PARP positive nuclei fraction (CBRC016) [%]	cleaved PARP positive nuclei fraction (CBRC017) [%]	cleaved PARP positive nuclei fraction (COLO792) [%]	cleaved PARP positive nuclei fraction (COLO800) [%]	cleaved PARP positive nuclei fraction (COLO829) [%]	cleaved PARP positive nuclei fraction (G361) [%]	cleaved PARP positive nuclei fraction (IPC-298) [%]	cleaved PARP positive nuclei fraction (IST-MEL1) [%]	cleaved PARP positive nuclei fraction (LB2518-MEL) [%]	cleaved PARP positive nuclei fraction (LOXIMVI) [%]	cleaved PARP positive nuclei fraction (MEL-HO) [%]
Nc1cccc2c1CN(C1CCC(=O)NC1=O)C2=O (stereo not drawn) [lenalidomide] + OCCn1cc(-c2cnc3nnn(Cc4ccc5ncccc5c4)c3n2)cn1 [PF04217903] (first compound 1 µM, partner dose 1 µM)	160	40.9	110	39.9	30.6	103	99.7	80.7	79.4	101	36.6	112	76.4	112	197	40.9	41	32.3	139
CO[C@@H]1[C@H](N(C)C(=O)c2ccccc2)C[C@H]2O[C@]1(C)n1c3ccccc3c3c4c(c5c6ccccc6n2c5c31)C(=O)NC4 [Midostaurin] + OCCn1cc(-c2cnc3nnn(Cc4ccc5ncccc5c4)c3n2)cn1 [PF04217903] (first compound 0.08 µM, partner dose 1 µM)	38.3	72.5	75.4	16.8	161	49.4	120	85.4	261	95	83.2	33.3	55.9	111	29.9	184	53.7	67.9	128
CC(=O)c1c(C)c2cnc(Nc3ccc(N4CCNCC4)cn3)nc2n(C2CCCC2)c1=O [palbociclib] + Cn1cncc1[C@@](N)(c1ccc(Cl)cc1)c1ccc2c(c1)c(-c1cccc(Cl)c1)cc(=O)n2C [tipifarnib] (first compound 0.04 µM, partner dose 0.01 µM)	209	62.2	97.8	434	92.1	48.4	95.7	98.9	158	125	251	17.8	174	162	56.6	134	70.2	231	86.5
CC(C)(C)c1cnc(CSc2cnc(NC(=O)C3CCNCC3)s2)o1 + NCC(=O)Nc1ccc(-n2nc(C(F)(F)F)cc2-c2ccc3c(ccc4ccccc43)c2)cc1 [OSU03012] (first compound 0.01 µM, partner dose 1 µM)	520	49.6	79.2	5980	59.6	132	182	89.8	71.4	79.3	164	198	77.8	44.5	97.9	96.3	70.2	69.5	140
C#Cc1cccc(Nc2ncnc3cc(OCCOC)c(OCCOC)cc23)c1 [erlotinib] + CO[C@@H]1[C@H](N(C)C(=O)c2ccccc2)C[C@H]2O[C@]1(C)n1c3ccccc3c3c4c(c5c6ccccc6n2c5c31)C(=O)NC4 [Midostaurin] (first compound 0.8 µM, partner dose 0.08 µM)	69.2	182	104	122	58.9	241	141	99.5	35.5	120	47	96.2	118	59.2	49.2	108	89.3	114	76.5
CO[C@@H]1[C@H](N(C)C(=O)c2ccccc2)C[C@H]2O[C@]1(C)n1c3ccccc3c3c4c(c5c6ccccc6n2c5c31)C(=O)NC4 [Midostaurin] + NCC(=O)Nc1ccc(-n2nc(C(F)(F)F)cc2-c2ccc3c(ccc4ccccc43)c2)cc1 [OSU03012] (first compound 0.08 µM, partner dose 1 µM)	474	284	27.8	3190	76	181	175	101	227	117	425	41.2	76.4	147	52	251	94.9	68.6	73.3
COCC[n+]1c2c(n(Cc3cnccn3)c1C)C(=O)c1ccccc1C2=O + C=CCn1c(=O)c2cnc(Nc3ccc(N4CCN(C)CC4)cc3)nc2n1-c1cccc(C(C)(C)O)n1 [MK1775] (first compound 0.0004 µM, partner dose 0.02 µM)	89.9	188	179	312	105	1110	92.1	91.7	89.6	110	75.8	105	84.1	43	55.6	150	147	95.6	171
COc1cc(Nc2ncc(F)c(Nc3ccc4c(n3)NC(=O)C(C)(C)O4)n2)cc(OC)c1OC [Tamatinib] + Cc1ccc(NC(=O)c2cccc(N(C)C)c2)cc1NC(=O)c1ccc(O)cc1 [ZM336372] (first compound 0.4 µM, partner dose 2 µM)	88.5	168	133	158	110	169	144	104	73.5	106	219	94.5	126	80.3	132	110	147	72.5	159
NC(=O)Nc1cc(-c2cccc(F)c2)sc1C(=O)N[C@H]1CCCNC1 + NCC(=O)Nc1ccc(-n2nc(C(F)(F)F)cc2-c2ccc3c(ccc4ccccc43)c2)cc1 [OSU03012] (first compound 0.02 µM, partner dose 1 µM)	1120	188	93.4	8970	51	159	102	104	61.2	86.2	159	54.1	34.7	122	177	213	70.8	50.6	221
OCc1c[nH]c2ccccc12 [Indole-3-carbinol] + COc1cc(Nc2ncc(F)c(Nc3ccc4c(n3)NC(=O)C(C)(C)O4)n2)cc(OC)c1OC [Tamatinib] (first compound 0.8 µM, partner dose 0.4 µM)	98.4	93.9	141	84.5	163	209	91.8	96.6	77.1	157	214	123	458	106	66.7	96.4	49.9	60.9	73.2
C[C@]1(c2nc3c(C(N)=O)cccc3[nH]2)CCCN1 [Veliparib] + CC(C)(C)c1cnc(CSc2cnc(NC(=O)C3CCNCC3)s2)o1 [SNS-032] (first compound 1.4 µM, partner dose 0.01 µM)	113	93.2	111	38.9	196	102	108	77.9	105	294	128	123	178	138	91.3	101	105	88.8	140
C=CCn1c(=O)c2cnc(Nc3ccc(N4CCN(C)CC4)cc3)nc2n1-c1cccc(C(C)(C)O)n1 + NC(=O)Nc1cc(-c2cccc(F)c2)sc1C(=O)N[C@H]1CCCNC1 [AZD7762] (first compound 0.02 µM, partner dose 0.02 µM)	101	51.7	188	2470	218	105	354	217	209	73.1	84.8	121	124	93.3	87.1	380	103	25.1	129
Cc1nc(Nc2ncc(C(=O)Nc3c(C)cccc3Cl)s2)cc(N2CCN(CCO)CC2)n1 [dasatanib] + CO[C@@H]1[C@H](N(C)C(=O)c2ccccc2)C[C@H]2O[C@]1(C)n1c3ccccc3c3c4c(c5c6ccccc6n2c5c31)C(=O)NC4 [Midostaurin] (first compound 0.004 µM, partner dose 0.08 µM)	76.3	66.2	88.3	159	224	155	101	89.4	154	154	102	72.8	210	186	100	59.3	102	91.6	158
COCC[n+]1c2c(n(Cc3cnccn3)c1C)C(=O)c1ccccc1C2=O + NC(=O)Nc1cc(-c2cccc(F)c2)sc1C(=O)N[C@H]1CCCNC1 [AZD7762] (first compound 0.0004 µM, partner dose 0.02 µM)	72.1	108	326	318	74.4	622	100	75	95.8	322	84.7	27.7	102	111	47	66.3	116	105	70
NC(=O)Nc1cc(-c2cccc(F)c2)sc1C(=O)N[C@H]1CCCNC1 + CN(NC(=O)CC(=O)NN(C)C(=S)c1ccccc1)C(=S)c1ccccc1 [STA4783] (first compound 0.02 µM, partner dose 0.006 µM)	179	97	111	8270	229	2760	121	711	189	157	178	90.3	162	82.9	186	207	265	107	134
Cn1c(Nc2ccc(C(F)(F)F)cc2)nc2cc(Oc3ccnc(-c4ncc(C(F)(F)F)[nH]4)c3)ccc21 + CN(C)S(=O)(=O)c1ccc2c(c1)/C(=C/c1cc3c([nH]1)CCCC3)C(=O)N2 [SU6656] (first compound 0.08 µM, partner dose 0.4 µM)	145	139	160	90.7	143	112	112	123	121	134	408	95.4	116	408	122	94.6	201	92.6	170
COc1cc(Nc2ncc(F)c(Nc3ccc4c(n3)NC(=O)C(C)(C)O4)n2)cc(OC)c1OC [Tamatinib] + OCCn1cc(-c2cnc3nnn(Cc4ccc5ncccc5c4)c3n2)cn1 [PF04217903] (first compound 0.4 µM, partner dose 1 µM)	90.3	110	186	398	49.1	188	88	87.5	77.9	87.6	296	93.7	211	129	76.1	49.6	212	114	69.7

Taken from above:
For cleaved PARP positive nuclei fraction (A375) [%], Cc1nc(Nc2ncc(C(=O)Nc3c(C)cccc3Cl)s2)cc(N2CCN(CCO)CC2)n1 [dasatanib] + CO[C@@H]1[C@H](N(C)C(=O)c2ccccc2)C[C@H]2O[C@]1(C)n1c3ccccc3c3c4c(c5c6ccccc6n2c5c31)C(=O)NC4 [Midostaurin] (first compound 0.004 µM, partner dose 0.08 µM) reads 159
For cleaved PARP positive nuclei fraction (A101D) [%], C#Cc1cccc(Nc2ncnc3cc(OCCOC)c(OCCOC)cc23)c1 [erlotinib] + CO[C@@H]1[C@H](N(C)C(=O)c2ccccc2)C[C@H]2O[C@]1(C)n1c3ccccc3c3c4c(c5c6ccccc6n2c5c31)C(=O)NC4 [Midostaurin] (first compound 0.8 µM, partner dose 0.08 µM) reads 182
